{
  "source": "ChEMBL document CHEMBL4834450",
  "about": "“Design, synthesis and antimicrobial activity of novel 2-aminothiophene containing cyclic and heterocyclic moieties” (2021)",
  "key": {"Pseudomonas aeruginosa": {"tested_on": "Pseudomonas aeruginosa", "experiment": "Antibacterial activity against Pseudomonas aeruginosa MTCC441 at 5 ug/ml", "type": "functional", "conditions": "dose 5.0 µg/ml"}, "Escherichia coli": {"tested_on": "Escherichia coli", "experiment": "Antibacterial activity against Escherichia coli MTCC442 at 5 ug/ml", "type": "functional", "conditions": "dose 5.0 µg/ml"}},
  "data": [
    {"sequence": "GENTAMICIN", "values": [
      {"measurement": "inhibition zone (IZ)", "setting": "Pseudomonas aeruginosa", "result": 17.3, "unit": "mm"},
      {"measurement": "inhibition zone (IZ)", "setting": "Escherichia coli", "result": 19.9, "unit": "mm"}
    ]}
  ]
}
